Test results reported in PMC10117376.
These are yes or no findings as the source states them, for the method shown. In cells and extracts the contact can be indirect. These calls come from enrichment with a bait or labelling near it, and not all partners need be listed.

Amino acid sequences for entries named in this document (tags omitted).
UniProt Q16650: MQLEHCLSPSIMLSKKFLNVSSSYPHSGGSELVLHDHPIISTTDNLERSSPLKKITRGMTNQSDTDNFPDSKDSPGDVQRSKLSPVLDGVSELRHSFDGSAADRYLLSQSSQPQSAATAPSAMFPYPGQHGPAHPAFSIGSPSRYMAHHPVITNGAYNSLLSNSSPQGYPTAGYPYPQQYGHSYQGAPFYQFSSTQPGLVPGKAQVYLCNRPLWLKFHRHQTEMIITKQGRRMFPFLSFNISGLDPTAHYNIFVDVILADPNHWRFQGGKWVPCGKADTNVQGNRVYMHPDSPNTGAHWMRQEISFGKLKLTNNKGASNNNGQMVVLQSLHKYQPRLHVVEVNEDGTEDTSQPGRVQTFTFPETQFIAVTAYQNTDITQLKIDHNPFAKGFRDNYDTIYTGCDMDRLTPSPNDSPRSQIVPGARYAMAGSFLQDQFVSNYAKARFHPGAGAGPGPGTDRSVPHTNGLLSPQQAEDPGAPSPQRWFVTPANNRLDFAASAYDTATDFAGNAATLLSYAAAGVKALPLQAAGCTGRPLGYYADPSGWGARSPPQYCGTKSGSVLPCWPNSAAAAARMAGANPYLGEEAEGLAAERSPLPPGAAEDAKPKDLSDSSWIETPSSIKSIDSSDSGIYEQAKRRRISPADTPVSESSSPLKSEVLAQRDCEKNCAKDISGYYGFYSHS

Molecular target: 2×FLAG/V5-TBR1 (human) (UniProt Q16650)
Test: affinity purification with mass spectrometry; nuclear extract of HEK293 cells stably expressing 2xFLAG/V5-TBR1 on anti-FLAG M2 agarose beads, 3 h at 4°C, buffer C-100 (20 mM HEPES pH 7.6, 20% glycerol, 100 mM KCl, 1.5 mM MgCl2, 0.2 mM EDTA) with benzonase and ethidium bromide; eluted with FLAG-tripeptide; two independent purifications (AP1, AP2); untransfected cells as control

Binder | binding
ZNF592 (protein, UniProt Q92610 1-1267) MGDMKTPDFDDLLAAFDIPDPTSLDAKEAIQTPSEENESPLKPPGICMDESVSLSHSGSAPDVPAVSVIVKNTSRQESFEAEKDHITPSLLHNGFRGSDLPPDPHNCGKFDSTFMNGDSARSFPGKLEPPKSEPLPTFNQFSPISSPEPEDPIKDNGFGIKPKHSDSYFPPPLGCGAVGGPVLEALAKFPVPELHMFDHFCKKEPKPEPLPLGSQQEHEQSGQNTVEPHKDPDATRFFGEALEFNSHPSNSIGESKGLARELGTCSSVPPRQRLKPAHSKLSSCVAALVALQAKRVASVTKEDQPGHTKDLSGPTKESSKGSPKMPKSPKSPRSPLEATRKSIKPSDSPRSICSDSSSKGSPSVAASSPPAIPKVRIKTIKTSSGEIKRTVTRILPDPDDPSKSPVGSPLGSAIAEAPSEMPGDEVPVEEHFPEAGTNSGSPQGARKGDESMTKASDSSSPSCSSGPRVPKGAAPGSQTGKKQQSTALQASTLAPANLLPKAVHLANLNLVPHSVAASVTAKSSVQRRSQPQLTQMSVPLVHQVKKAAPLIVEVFNKVLHSSNPVPLYAPNLSPPADSRIHVPASGYCCLECGDAFALEKSLSQHYGRRSVHIEVLCTLCSKTLLFFNKCSLLRHARDHKSKGLVMQCSQLLVKPISADQMFVSAPVNSTAPAAPAPSSSPKHGLTSGSASPPPPALPLYPDPVRLIRYSIKCLECHKQMRDYMVLAAHFQRTTEETEGLTCQVCQMLLPNQCSFCAHQRIHAHKSPYCCPECGVLCRSAYFQTHVKENCLHYARKVGYRCIHCGVVHLTLALLKSHIQERHCQVFHKCAFCPMAFKTASSTADHSATQHPTQPHRPSQLIYKCSCEMVFNKKRHIQQHFYQNVSKTQVGVFKCPECPLLFVQKPELMQHVKSTHGVPRNVDELSSLQSSADTSSSRPGSRVPTEPPATSVAARSSSLPSGRWGRPEAHRRVEARPRLRNTGWTCQECQEWVPDRESYVSHMKKSHGRTLKRYPCRQCEQSFHTPNSLRKHIRNNHDTVKKFYTCGYCTEDSPSFPRPSLLESHISLMHGIRNPDLSQTSKVKPPGGHSPQVNHLKRPVSGVGDAPGTSNGATVSSTKRHKSLFQCAKCSFATDSGLEFQSHIPQHQVDSSTAQCLLCGLCYTSASSLSRHLFIVHKVRDQEEEEEEEAAAAEMAVEVAEPEEGSGEEVPMETRENGLEECAGEPLSADPEARRLLGPAPEDDGGHNDHSQPQASQDQDSHTLSPQV | binds
ZNF687 (protein, UniProt Q8N1G0 1-1237) MGDMKTPDFDDLLAAFDIPDIDANEAIHSGPEENEGPGGPGKPEPGVGSESEDTAAASAGDGPGVPAQASDHGLPPPDISVVSVIVKNTVCPEQSEALAGGSAGDGAQAAGVTKEGPVGPHRMQNGFGSPEPSLPGTPHSPAPPSGGTWKEKGMEGKTPLDLFAHFGPEPGDHSDPLPPSAPSPTREGALTPPPFPSSFELAQENGPGMQPPVSSPPLGALKQESCSPHHPQVLAQQGSGSSPKATDIPASASPPPVAGVPFFKQSPGHQSPLASPKVPVCQPLKEEDDDEGPVDKSSPGSPQSPSSGAEAADEDSNDSPASSSSRPLKVRIKTIKTSCGNITRTVTQVPSDPDPPAPLAEGAFLAEASLLKLSPATPTSEGPKVVSVQLGDGTRLKGTVLPVATIQNASTAMLMAASVARKAVVLPGGTATSPKMIAKNVLGLVPQALPKADGRAGLGTGGQKVNGASVVMVQPSKTATGPSTGGGTVISRTQSSLVEAFNKILNSKNLLPAYRPNLSPPAEAGLALPPTGYRCLECGDAFSLEKSLARHYDRRSMRIEVTCNHCARRLVFFNKCSLLLHAREHKDKGLVMQCSHLVMRPVALDQMVGQPDITPLLPVAVPPVSGPLALPALGKGEGAITSSAITTVAAEAPVLPLSTEPPAAPATSAYTCFRCLECKEQCRDKAGMAAHFQQLGPPAPGATSNVCPTCPMMLPNRCSFSAHQRMHKNRPPHVCPECGGNFLQANFQTHLREACLHVSRRVGYRCPSCSVVFGGVNSIKSHIQTSHCEVFHKCPICPMAFKSGPSAHAHLYSQHPSFQTQQAKLIYKCAMCDTVFTHKPLLSSHFDQHLLPQRVSVFKCPSCPLLFAQKRTMLEHLKNTHQSGRLEETAGKGAGGALLTPKTEPEELAVSQGGAAPATEESSSSSEEEEVPSSPEPPRPAKRPRRELGSKGLKGGGGGPGGWTCGLCHSWFPERDEYVAHMKKEHGKSVKKFPCRLCERSFCSAPSLRRHVRVNHEGIKRVYPCRYCTEGKRTFSSRLILEKHVQVRHGLQLGAQSPGRGTTLARGSSARAQGPGRKRRQSSDSCSEEPDSTTPPAKSPRGGPGSGGHGPLRYRSSSSTEQSLMMGLRVEDGAQQCLDCGLCFASPGSLSRHRFISHKKRRGVGKASALGLGDGEEEAPPSRSDPDGGDSPLPASGGPLTCKVCGKSCDSPLNLKTHFRTHGMAFIRARQGAVGDN | binds
POGZ (protein, UniProt Q7Z3K3 1-1410) MADTDLFMECEEEELEPWQKISDVIEDSVVEDYNSVDKTTTVSVSQQPVSAPVPIAAHASVAGHLSTSTTVSSSGAQNSDSTKKTLVTLIANNNAGNPLVQQGGQPLILTQNPAPGLGTMVTQPVLRPVQVMQNANHVTSSPVASQPIFITTQGFPVRNVRPVQNAMNQVGIVLNVQQGQTVRPITLVPAPGTQFVKPTVGVPQVFSQMTPVRPGSTMPVRPTTNTFTTVIPATLTIRSTVPQSQSQQTKSTPSTSTTPTATQPTSLGQLAVQSPGQSNQTTNPKLAPSFPSPPAVSIASFVTVKRPGVTGENSNEVAKLVNTLNTIPSLGQSPGPVVVSNNSSAHGSQRTSGPESSMKVTSSIPVFDLQDGGRKICPRCNAQFRVTEALRGHMCYCCPEMVEYQKKGKSLDSEPSVPSAAKPPSPEKTAPVASTPSSTPIPALSPPTKVPEPNENVGDAVQTKLIMLVDDFYYGRDGGKVAQLTNFPKVATSFRCPHCTKRLKNNIRFMNHMKHHVELDQQNGEVDGHTICQHCYRQFSTPFQLQCHLENVHSPYESTTKCKICEWAFESEPLFLQHMKDTHKPGEMPYVCQVCQYRSSLYSEVDVHFRMIHEDTRHLLCPYCLKVFKNGNAFQQHYMRHQKRNVYHCNKCRLQFLFAKDKIEHKLQHHKTFRKPKQLEGLKPGTKVTIRASRGQPRTVPVSSNDTPPSALQEAAPLTSSMDPLPVFLYPPVQRSIQKRAVRKMSVMGRQTCLECSFEIPDFPNHFPTYVHCSLCRYSTCCSRAYANHMINNHVPRKSPKYLALFKNSVSGIKLACTSCTFVTSVGDAMAKHLVFNPSHRSSSILPRGLTWIAHSRHGQTRDRVHDRNVKNMYPPPSFPTNKAATVKSAGATPAEPEELLTPLAPALPSPASTATPPPTPTHPQALALPPLATEGAECLNVDDQDEGSPVTQEPELASGGGGSGGVGKKEQLSVKKLRVVLFALCCNTEQAAEHFRNPQRRIRRWLRRFQASQGENLEGKYLSFEAEEKLAEWVLTQREQQLPVNEETLFQKATKIGRSLEGGFKISYEWAVRFMLRHHLTPHARRAVAHTLPKDVAENAGLFIDFVQRQIHNQDLPLSMIVAIDEISLFLDTEVLSSDDRKENALQTVGTGEPWCDVVLAILADGTVLPTLVFYRGQMDQPANMPDSILLEAKESGYSDDEIMELWSTRVWQKHTACQRSKGMLVMDCHRTHLSEEVLAMLSASSTLPAVVPAGCSSKIQPLDVCIKRTVKNFLHKKWKEQAREMADTACDSDVLLQLVLVWLGEVLGVIGDCPELVQRSFLVASVLPGPDGNINSPTRNADMQEELIASLEEQLKLSGEHSESSTPRPRSSPEETIEPESLHQLFEGESETESFYGFEEADLDLMEI | binds
CTNND1 (endogenous) (protein, UniProt O60716 1-968) MDDSEVESTASILASVKEQEAQFEKLTRALEEERRHVSAQLERVRVSPQDANPLMANGTLTRRHQNGRFVGDADLERQKFSDLKLNGPQDHSHLLYSTIPRMQEPGQIVETYTEEDPEGAMSVVSVETSDDGTTRRTETTVKKVVKTVTTRTVQPVAMGPDGLPVDASSVSNNYIQTLGRDFRKNGNGGPGPYVGQAGTATLPRNFHYPPDGYSRHYEDGYPGGSDNYGSLSRVTRIEERYRPSMEGYRAPSRQDVYGPQPQVRVGGSSVDLHRFHPEPYGLEDDQRSMGYDDLDYGMMSDYGTARRTGTPSDPRRRLRSYEDMIGEEVPSDQYYWAPLAQHERGSLASLDSLRKGGPPPPNWRQPELPEVIAMLGFRLDAVKSNAAAYLQHLCYRNDKVKTDVRKLKGIPVLVGLLDHPKKEVHLGACGALKNISFGRDQDNKIAIKNCDGVPALVRLLRKARDMDLTEVITGTLWNLSSHDSIKMEIVDHALHALTDEVIIPHSGWEREPNEDCKPRHIEWESVLTNTAGCLRNVSSERSEARRKLRECDGLVDALIFIVQAEIGQKDSDSKLVENCVCLLRNLSYQVHREIPQAERYQEAAPNVANNTGPHAASCFGAKKGKDEWFSRGKKPIEDPANDTVDFPKRTSPARGYELLFQPEVVRIYISLLKESKTPAILEASAGAIQNLCAGRWTYGRYIRSALRQEKALSAIADLLTNEHERVVKAASGALRNLAVDARNKELIGKHAIPNLVKNLPGGQQNSSWNFSEDTVISILNTINEVIAENLEAAKKLRETQGIEKLVLINKSGNRSEKEVRAAALVLQTIWGYKELRKPLEKEGWKKSDFQVNLNNASRSQSSHSYDDSTLPLIDRNQKSDKKPDREEIQMSNMGSNTKSLDNNYSTPNERGDHNRTLDRSGDLGDMEPLKGTTPLMQDEGQESLEEELDVLVLDDEGGQVSYPSMQKI | binds
NR2F2 (endogenous) (protein, UniProt P24468 1-414) MAMVVSTWRDPQDEVPGSQGSQASQAPPVPGPPPGAPHTPQTPGQGGPASTPAQTAAGGQGGPGGPGSDKQQQQQHIECVVCGDKSSGKHYGQFTCEGCKSFFKRSVRRNLSYTCRANRNCPIDQHHRNQCQYCRLKKCLKVGMRREAVQRGRMPPTQPTHGQFALTNGDPLNCHSYLSGYISLLLRAEPYPTSRFGSQCMQPNNIMGIENICELAARMLFSAVEWARNIPFFPDLQITDQVALLRLTWSELFVLNAAQCSMPLHVAPLLAAAGLHASPMSADRVVAFMDHIRIFQEQVEKLKALHVDSAEYSCLKAIVLFTSDACGLSDVAHVESLQEKSQCALEEYVRSQYPNQPTRFGKLLLRLPSLRTVSSSVIEQLFFVRLVGKTPIETLIRDMLLSGSSFNWPYMAIQ | binds
